Some of these results come from one statement about several compounds together. For at least one compound, name, drawing or mass did not settle the structure.
Tested on: ALuc16
Test: Metal cation-driven optical intensities of ALuc16 (purified enzyme)
Assay type: biochemical
Settings: metal cation-free Tris-HCl buffer (pH 8.2, 0.05 M), nCTZ
Method: The metal cation-driven optical properties were estimated with ALuc16 (FIG. 6). A metal cation-free sample of ALuc16 was prepared beforehand as follows: we first generated a DNA construct of ALuc16 carrying a Strep-II tag at the C-terminus via PCR. The construct was then cloned into a pOPTHM vector (providing a cleavable N-terminal His6-MBP tag), and expressed in the bacterial strain Shuffle T7 Express (New England Biolabs) with 0.3 mM IPTG induction. […] The lysate was centrifuged at 18,000 rpm for 40 minutes, and then the supernatant was passed over a 5 mL HisTrap HP column (GE Healthcare). […] The eluted sample was dialyzed to a metal-cation-free Tris-HCl buffer (0.05 M, pH 8.2) at 4° C. for 24 hours, and finally adjusted to a concentration of 1 mg/ml by dilution. […] Meanwhile, the corresponding substrate solution carrying nCTZ (Promega) was diluted 100-fold with the cation-free Tris-HCl buffer (Solution B). 50 μL of Solution B was simultaneously injected into Solution A in the 96-well plate with a multichannel micropipette (Gilson). The microplate was immediately moved to an image analyzer (LAS-4000, FujiFilm) equipped with a cooled charge-coupled device (CCD) camera, and the optical intensities were simultaneously estimated in a precision mode. The measurements were conducted in triplicate (n=3). The optical images were analyzed with Multi Gauge V3.2 (FujiFilm). […]

## [Ca+2].[Cl-].[Cl-] [Ca(II)]
  elevation of ALuc16 activities / optical intensities: up to 1.5 times

Source: patent US10787650B2, “Artificial bioluminescent enzymes” (NATIONAL INSTITUTE OF ADVANCED INDUSTRIAL SCIENCE AND …, priority 2015, dated 2020)
